Consider three molecules from publication PMC3610895.

Sequences of proteins named here, by UniProt entry; tags and fusion partners are left off. A change or cut given only in a name is not applied to a line headed by its entry.
UniProt Q9VKV4: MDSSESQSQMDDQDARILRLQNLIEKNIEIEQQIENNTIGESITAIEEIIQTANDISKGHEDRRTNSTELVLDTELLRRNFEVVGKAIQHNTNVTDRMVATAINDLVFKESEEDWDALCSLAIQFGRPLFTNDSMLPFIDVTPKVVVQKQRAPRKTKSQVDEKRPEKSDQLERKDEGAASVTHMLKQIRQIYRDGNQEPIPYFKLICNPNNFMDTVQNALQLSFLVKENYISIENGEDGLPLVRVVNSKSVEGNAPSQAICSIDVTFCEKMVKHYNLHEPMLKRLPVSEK
UniProt Q9I7L4: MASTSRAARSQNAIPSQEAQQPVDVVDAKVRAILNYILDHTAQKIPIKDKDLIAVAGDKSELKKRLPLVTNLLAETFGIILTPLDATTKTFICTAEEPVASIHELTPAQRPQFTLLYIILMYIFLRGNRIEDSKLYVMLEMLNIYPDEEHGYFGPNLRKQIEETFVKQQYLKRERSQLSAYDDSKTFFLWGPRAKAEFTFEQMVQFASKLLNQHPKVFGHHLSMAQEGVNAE

Assay [1] deals with HA-tagged Nse4 (Drosophila melanogaster) (UniProt Q9VKV4). The assay is described as follows: co-IP; HA-Nse4 and FLAG-Mage co-expressed in S2 cells; lysate in mild lysis buffer (50 mM Tris, 150 mM NaCl, 1% Triton X-100, pH 8.0); protein G agarose beads pre-bound with antibody, 1 h at 4°C, six washes; immunoblot. A general note: Immunoblotting shows a protein as a band on a membrane.

The target of assay [2] is FLAG-tagged Mage (Drosophila melanogaster) (UniProt Q9I7L4). The description is as above.
In assay [3] the target is maltose binding protein (MBP)-fused Mage (Drosophila melanogaster) (UniProt Q9I7L4). The assay is described as follows: pull-down; MBP-Mage or MBP immobilized on amylose resin; 35S-labeled in vitro translated probe proteins; 20 mM Tris, 100 mM NaCl, 0.5 mM EDTA, 10% glycerol, 1% Tween-20, pH 7.6, 0.25% BSA, overnight at 4°C; six washes; SDS-PAGE and autoradiography; only the target purified.

These are yes or no findings as the source states them, for the method shown. Binding seen in cells or lysates may run through a third protein. Binding calls can cover weak binding; strength is not graded here.

Take FLAG-tagged Mage (from UniProt Q9I7L4): the binding entry in assay [1] was “binds”.
Turning to HA-tagged Nse4 (from UniProt Q9VKV4), the binding result in assay [2] is given as “binds”.

B1: 35S-methionine labeled Nse1 (protein, UniProt Q9VMA0 1-235)
chain: MELVKRGFLRACKNHSYLSFELIDDILAPLCANHKTTKPGSKEAIRALVAEINDTISDLGQLLVFIKYPVKAEEYLVYAKTDATPDSVANTGLTAEECQYFSKLLDKIASEEDCHIAWNDAYNDIVLQASSKPLKKSRMQELLQKWIQMGYFMEVTDRIYLGPRSLVELSFYLSSNHADNIKNCTLCKCLVLWDIRCGSCNIQYHRGCIQTYLQRRDICPSCGNLWTTPIRRSIG
modifications: 35S-methionine labeled
For the molecule B1, the binding entry in assay [3] is on record as “binds”.
